The values that follow come from publication PMC10812545, “The Binding of HSPA8 and Mitochondrial ALDH2 Mediates Oxygen-Glucose Deprivation-Induced Fibroblast Senescence” (Antioxidants, 2023).

Amino acid sequences for entries named in this document (tags omitted).
UniProt P63017: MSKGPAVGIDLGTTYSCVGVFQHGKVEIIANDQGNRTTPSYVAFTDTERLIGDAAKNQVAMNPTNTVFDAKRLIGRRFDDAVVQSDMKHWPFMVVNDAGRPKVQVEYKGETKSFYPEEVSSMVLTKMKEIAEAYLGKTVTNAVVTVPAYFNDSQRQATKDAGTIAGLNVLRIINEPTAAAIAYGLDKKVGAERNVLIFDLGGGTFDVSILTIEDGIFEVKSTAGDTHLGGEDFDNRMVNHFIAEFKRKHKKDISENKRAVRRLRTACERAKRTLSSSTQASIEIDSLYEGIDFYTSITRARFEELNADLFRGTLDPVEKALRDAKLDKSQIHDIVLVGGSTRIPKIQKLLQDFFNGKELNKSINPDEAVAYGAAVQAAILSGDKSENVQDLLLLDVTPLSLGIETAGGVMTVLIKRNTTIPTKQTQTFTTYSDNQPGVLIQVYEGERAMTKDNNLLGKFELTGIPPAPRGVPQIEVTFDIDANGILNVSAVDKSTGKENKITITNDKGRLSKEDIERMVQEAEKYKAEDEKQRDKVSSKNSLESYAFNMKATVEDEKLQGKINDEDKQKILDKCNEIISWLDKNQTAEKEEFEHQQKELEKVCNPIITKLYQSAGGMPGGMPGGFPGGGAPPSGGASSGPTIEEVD

Results are given in words; binding and its absence hold for the method and conditions named. In cells and extracts the contact can be indirect. Some entries that bind do so weakly or less than the wild type.

In the experiment the target is Heat Shock 70-kDa Protein 8 (HSPA8) (mouse (endogenous in NIH3T3)) (UniProt P63017). Briefly: co-IP; NIH3T3 cells (OGD 4 h; negative control siRNA or siHSPA8) immunoprecipitated using HSPA8 antibody (by the legend); bound proteins by Western blot. (A western blot detects proteins with antibodies after separation by electrophoresis.)

B1: Aldehyde dehydrogenase 2 (ALDH2) (enzyme, mouse (endogenous in NIH3T3), UniProt P47738 20-519, looked up)
chain: SAAATSAVPAPNHQPEVFCNQIFINNEWHDAVSRKTFPTVNPSTGEVICQVAEGNKEDVDKAVKAARAAFQLGSPWRRMDASDRGRLLYRLADLIERDRTYLAALETLDNGKPYVISYLVDLDMVLKCLRYYAGWADKYHGKTIPIDGDFFSYTRHEPVGVCGQIIPWNFPLLMQAWKLGPALATGNVVVMKVAEQTPLTALYVANLIKEAGFPPGVVNIVPGFGPTAGAAIASHEGVDKVAFTGSTEVGHLIQVAAGSSNLKRVTLELGGKSPNIIMSDADMDWAVEQAHFALFFNQGQCCCAGSRTFVQENVYDEFVERSVARAKSRVVGNPFDSRTEQGPQVDETQFKKILGYIKSGQQEGAKLLCGGGAAADRGYFIQPTVFGDVKDGMTIAKEEIFGPVMQILKFKTIEEVVGRANDSKYGLAAAVFTKDLDKANYLSQALQAGTVWINCYDVFGAQSPFGGYKMSGSGRELGEYGLQAYTEVKTVTVKVPQKNS
notes: Aldehyde dehydrogenase 2, mitochondrial, endogenous in the mouse fibroblast line NIH3T3; Seen as dimer and tetramer after DSS cross-linking; also called mitochondrial ALDH2; mitochondrial aldehyde dehydrogenase; source: endogenous, NIH3T3 lysate
B1: the binding result is reported as “binds”.
